In the assay the target is T1, recombinant mouse ALCAM protein (mouse) (UniProt Q61490).
T1 sequence: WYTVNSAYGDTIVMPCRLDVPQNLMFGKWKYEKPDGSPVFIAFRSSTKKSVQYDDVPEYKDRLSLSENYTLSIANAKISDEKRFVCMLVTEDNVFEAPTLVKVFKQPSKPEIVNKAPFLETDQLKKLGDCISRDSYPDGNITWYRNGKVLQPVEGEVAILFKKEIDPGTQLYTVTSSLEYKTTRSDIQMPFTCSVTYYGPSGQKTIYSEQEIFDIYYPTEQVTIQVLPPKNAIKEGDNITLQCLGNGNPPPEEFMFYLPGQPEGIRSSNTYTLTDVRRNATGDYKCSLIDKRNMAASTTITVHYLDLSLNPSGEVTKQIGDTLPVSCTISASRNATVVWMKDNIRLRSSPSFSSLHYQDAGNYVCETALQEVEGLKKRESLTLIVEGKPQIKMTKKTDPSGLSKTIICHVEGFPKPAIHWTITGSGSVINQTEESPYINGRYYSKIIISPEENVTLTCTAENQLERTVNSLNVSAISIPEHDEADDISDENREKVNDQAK
Nature of the assay: ELISA; recombinant mouse ALCAM adsorbed to a 96-well plate; CD62P-Fc added in solution; detected with AP-conjugated antibodies to human Fc fragment, absorbance at 405 nm; BSA as control; both purified. In general terms: ELISA stands for enzyme-linked immunosorbent assay.

No constants are given. Whether binding was seen depends on the method and setting. Some entries that bind do so weakly or less than the wild type. Sequences can lack the tags named with a protein.

B1: CD62P-Fc fusion protein (Fc fusion, UniProt Q01102 42-709)
chain: WTYNYSTKAYSWNNSRVFCRRHFTDLVAIQNKNEIAHLNDVIPFFNSYYWIGIRKINNKWTWVGTNKTLTEEAENWADNEPNNKKNNQDCVEIYIKSNSAPGKWNDEPCFKRKRALCYTASCQDMSCSNQGECIETIGSYTCSCYPGFYGPECEYVKECGKVNIPQHVLMNCSHPLGEFSFNSQCTFSCAEGYELDGPGELQCLASGIWTNNPPKCDAVQCQSLEAPPHGTMACMHPIAAFAYDSSCKFECQPGYRARGSNTLHCTGSGQWSEPLPTCEAIACEPPEIPIHGSMDCVPSTGTFGYNSSCTFLCAEGFVLKGNDAIQCADSGQWTAPAPFCEALQCPEFPVPSKAQVNCSDPFGTLTYQSVCSFSCDEGSLLVGASVIRCLATGHWNGAPPECQAVSCAPMLSPENGSMTCVQPLGNSTYKSTCQFMCDEGFYLSGPERLDCSPSGHWTGTPPTCEAIKCPGIFAPEQGNLDCSHVHGEFGVGSICHFSCNEDFELLGSENVECTVSGRWSAPPPTCKGITSLPAPAVRCPALTTPGQGTMSCQHHLGSFGPNTTCYFGCKTGFTLRGANSLRCRASGQWTAVTPMCRAVKCSELHMDTAVAMNCSNPWGNFSYGSTCTFQCPEGQSLNGSVRATCREDGHWSDAMPTCQAGTLTIQEA
Take B1: the binding entry is given as “binds”.
